Our source for the binding values is PMC5540560.

By UniProt entry, the sequences of proteins in these tests, tags left out.
UniProt P27338: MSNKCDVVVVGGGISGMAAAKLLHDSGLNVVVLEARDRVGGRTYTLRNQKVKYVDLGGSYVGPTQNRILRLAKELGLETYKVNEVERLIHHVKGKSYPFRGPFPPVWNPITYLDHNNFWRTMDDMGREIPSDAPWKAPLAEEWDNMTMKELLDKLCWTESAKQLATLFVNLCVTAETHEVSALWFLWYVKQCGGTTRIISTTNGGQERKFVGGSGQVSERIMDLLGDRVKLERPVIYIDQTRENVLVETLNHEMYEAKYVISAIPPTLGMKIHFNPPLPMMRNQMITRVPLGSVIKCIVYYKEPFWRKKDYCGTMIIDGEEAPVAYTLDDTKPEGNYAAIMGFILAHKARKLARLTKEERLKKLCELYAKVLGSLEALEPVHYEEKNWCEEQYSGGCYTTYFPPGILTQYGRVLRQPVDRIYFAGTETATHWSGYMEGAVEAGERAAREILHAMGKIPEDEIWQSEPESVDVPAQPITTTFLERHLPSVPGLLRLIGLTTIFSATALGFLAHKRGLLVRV

The assay addresses monoamine oxidase B (human) (human (endogenous in postmortem human brain)) (UniProt P27338). Kind of assay: co-IP; microsomes from postmortem human brain cortex preincubated with rabbit anti-MAO-B (M1821 or OB1418), protein A-Dynabeads; detection with anti-Nicastrin or anti-PS1 IgG.

No constants are given. Whether binding was seen depends on the method and setting. Binding seen in cells or lysates may run through a third protein. Some results given as binding are weak or reduced against the parent protein; the word gives no strength.

Turning to “nicastrin (human) (from UniProt Q92542 34-709)”, the binding entry is “binds”.
